Results are given in words; binding and its absence hold for the method and conditions named. Some results given as binding are weak or reduced against the parent protein; the word gives no strength.
Key:
[1] = target: Gli1 (wild-type, full-length) (human) (UniProt P08151); experiment: IP-Western, BE3 cells transfected with HA-T389E; the interaction was not inhibited by rapamycin
[2] = target: Gli1 (wild-type, full-length) (human) (UniProt P08151); experiment: IP-Western, BE3 cells transfected with HA-S6K1; the interaction was inhibited by rapamycin

Protein sequences, listed by entry. Tags and fused reporters are not part of them. Lines headed by an entry give the natural chain unless they say otherwise; changes in a name come on top. Chains listed by the source or under a name are the forms on record and can include a tag or linker.
UniProt P08151: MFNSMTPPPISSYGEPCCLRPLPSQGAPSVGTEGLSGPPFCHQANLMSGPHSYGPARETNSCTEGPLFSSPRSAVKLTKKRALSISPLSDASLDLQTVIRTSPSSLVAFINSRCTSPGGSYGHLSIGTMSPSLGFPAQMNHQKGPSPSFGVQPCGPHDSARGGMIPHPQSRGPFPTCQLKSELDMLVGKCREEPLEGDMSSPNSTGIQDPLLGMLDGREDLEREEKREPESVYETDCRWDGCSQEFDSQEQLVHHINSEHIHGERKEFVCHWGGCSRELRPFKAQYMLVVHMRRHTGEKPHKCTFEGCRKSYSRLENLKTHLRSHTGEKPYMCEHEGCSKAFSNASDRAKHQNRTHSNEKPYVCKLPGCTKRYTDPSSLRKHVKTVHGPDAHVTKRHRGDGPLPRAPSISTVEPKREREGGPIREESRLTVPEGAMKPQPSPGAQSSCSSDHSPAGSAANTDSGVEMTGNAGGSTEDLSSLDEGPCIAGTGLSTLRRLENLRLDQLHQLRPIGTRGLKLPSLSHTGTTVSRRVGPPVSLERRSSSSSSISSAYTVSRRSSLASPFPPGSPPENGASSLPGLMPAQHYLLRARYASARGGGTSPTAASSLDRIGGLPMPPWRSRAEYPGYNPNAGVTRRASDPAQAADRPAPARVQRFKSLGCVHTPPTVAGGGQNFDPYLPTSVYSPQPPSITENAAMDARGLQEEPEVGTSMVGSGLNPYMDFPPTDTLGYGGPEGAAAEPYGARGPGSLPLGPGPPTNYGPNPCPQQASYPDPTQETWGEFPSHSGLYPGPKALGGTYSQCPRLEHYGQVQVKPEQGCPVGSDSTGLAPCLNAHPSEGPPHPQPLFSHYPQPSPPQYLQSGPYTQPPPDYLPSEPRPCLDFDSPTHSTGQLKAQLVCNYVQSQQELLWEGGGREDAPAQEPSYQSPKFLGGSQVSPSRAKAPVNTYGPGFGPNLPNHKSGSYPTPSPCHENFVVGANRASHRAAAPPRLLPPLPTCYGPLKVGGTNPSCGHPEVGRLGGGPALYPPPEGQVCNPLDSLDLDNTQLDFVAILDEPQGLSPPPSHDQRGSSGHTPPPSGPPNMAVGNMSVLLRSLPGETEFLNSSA
HA-tagged constitutively activated S6K1T389E (P23443, form named): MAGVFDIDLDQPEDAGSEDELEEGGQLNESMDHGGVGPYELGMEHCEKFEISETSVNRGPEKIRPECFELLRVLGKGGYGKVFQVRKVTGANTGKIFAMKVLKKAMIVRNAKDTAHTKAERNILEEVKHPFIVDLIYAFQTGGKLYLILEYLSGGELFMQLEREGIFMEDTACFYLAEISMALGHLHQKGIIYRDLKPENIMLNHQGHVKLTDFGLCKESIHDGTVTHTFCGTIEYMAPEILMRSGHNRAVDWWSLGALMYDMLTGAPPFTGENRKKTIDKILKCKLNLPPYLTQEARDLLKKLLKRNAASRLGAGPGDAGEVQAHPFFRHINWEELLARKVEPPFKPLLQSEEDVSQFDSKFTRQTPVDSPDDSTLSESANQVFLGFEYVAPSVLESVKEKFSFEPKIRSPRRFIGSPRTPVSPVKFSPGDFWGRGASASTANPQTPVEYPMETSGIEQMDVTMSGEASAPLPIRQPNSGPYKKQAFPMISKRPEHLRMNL

“HA-tagged constitutively activated S6K1T389E (from UniProt P23443 1-502) (enzyme)” was tested, and the binding [1] was “binds”.

In the case of “HA-tagged wild-type S6K1 (from UniProt P23443 1-502) (enzyme)”, the binding [2] is reported as “binds”.

— US20150017651A1
